Values of other authors, collected in US20130090329A1, “Methods and Compositions for the Treatment of Psychotic Disorders Through the Identification of the Olanzapine Poor Response Predictor Genetic Signature” (SUREGENE, LLC, priority 2011, published 2013).
At least one compound was matched to its structure with a doubt left.

Assays:
psychopathology (PANSS) = conditions: meta-analysis, population not segmented by OPRP; negative = greater reduction in PANSS; cited from earlier work
psychopathology = conditions: meta-analysis, cited from earlier work

Structure (SMILES): Cc1cc2c(s1)Nc1ccccc1N=C2N1CCN(C)CC1 [Olanzapine]
- Effect Size vs. Placebo (psychopathology (PANSS)): −0.59
- Effect Size vs. FGA (first generation antipsychotics) (psychopathology; Davis et al. (2003)): −0.21
- Efficacy advantage over first generation (typical) antipsychotics (psychopathology): significant advantage
